Source: the supplement of paper PMC6411743
± gives the standard deviation of the averaged measurements. Some of the results follow.

Sequences of proteins named here, by UniProt entry; tags and fusion partners are left off. A change or cut given only in a name is not applied to a line headed by its entry.
UniProt P50995, whole entry: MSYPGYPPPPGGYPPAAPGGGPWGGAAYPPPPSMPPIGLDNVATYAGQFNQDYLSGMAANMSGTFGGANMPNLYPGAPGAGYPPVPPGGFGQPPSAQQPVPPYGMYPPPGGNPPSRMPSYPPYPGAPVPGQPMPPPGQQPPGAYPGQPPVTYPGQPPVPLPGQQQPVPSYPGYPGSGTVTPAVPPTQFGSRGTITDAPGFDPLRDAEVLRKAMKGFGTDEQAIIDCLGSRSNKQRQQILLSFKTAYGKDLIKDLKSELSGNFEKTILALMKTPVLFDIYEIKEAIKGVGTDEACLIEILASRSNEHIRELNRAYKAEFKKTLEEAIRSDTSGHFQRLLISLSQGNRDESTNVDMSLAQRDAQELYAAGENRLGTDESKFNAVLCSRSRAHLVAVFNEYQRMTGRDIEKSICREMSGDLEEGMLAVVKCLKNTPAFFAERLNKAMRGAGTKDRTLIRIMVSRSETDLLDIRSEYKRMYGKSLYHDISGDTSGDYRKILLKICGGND
UniProt P51580: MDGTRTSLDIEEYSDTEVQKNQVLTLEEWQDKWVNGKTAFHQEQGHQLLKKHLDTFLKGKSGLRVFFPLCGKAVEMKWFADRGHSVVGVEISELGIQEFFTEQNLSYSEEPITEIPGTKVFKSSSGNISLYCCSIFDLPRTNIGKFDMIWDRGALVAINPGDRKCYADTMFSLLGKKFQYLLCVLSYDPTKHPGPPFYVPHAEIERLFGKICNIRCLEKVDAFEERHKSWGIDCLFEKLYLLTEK
UniProt Q00325: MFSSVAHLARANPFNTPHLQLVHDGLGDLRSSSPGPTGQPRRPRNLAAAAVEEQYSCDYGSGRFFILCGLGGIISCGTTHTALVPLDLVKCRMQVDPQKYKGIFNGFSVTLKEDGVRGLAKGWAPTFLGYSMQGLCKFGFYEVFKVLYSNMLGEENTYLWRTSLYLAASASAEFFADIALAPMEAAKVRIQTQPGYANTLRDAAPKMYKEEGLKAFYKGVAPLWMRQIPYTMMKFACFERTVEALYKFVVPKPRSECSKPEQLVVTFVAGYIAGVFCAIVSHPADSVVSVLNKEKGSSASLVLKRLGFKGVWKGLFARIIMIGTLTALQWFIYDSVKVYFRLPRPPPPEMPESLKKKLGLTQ
UniProt P56559: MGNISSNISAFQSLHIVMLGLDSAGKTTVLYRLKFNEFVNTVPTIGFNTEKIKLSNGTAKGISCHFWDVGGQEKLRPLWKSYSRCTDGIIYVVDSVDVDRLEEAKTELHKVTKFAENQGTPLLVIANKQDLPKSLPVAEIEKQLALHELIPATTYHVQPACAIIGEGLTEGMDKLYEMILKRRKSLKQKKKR
UniProt P53990, whole entry: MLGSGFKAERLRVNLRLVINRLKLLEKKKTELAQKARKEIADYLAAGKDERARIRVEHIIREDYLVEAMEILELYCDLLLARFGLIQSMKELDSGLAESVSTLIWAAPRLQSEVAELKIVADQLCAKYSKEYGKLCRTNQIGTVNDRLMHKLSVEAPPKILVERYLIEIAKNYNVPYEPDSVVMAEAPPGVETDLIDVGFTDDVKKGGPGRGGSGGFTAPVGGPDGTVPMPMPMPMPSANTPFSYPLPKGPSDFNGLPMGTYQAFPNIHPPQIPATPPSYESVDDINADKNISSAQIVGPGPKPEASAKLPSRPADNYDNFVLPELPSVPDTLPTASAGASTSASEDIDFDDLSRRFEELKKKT
UniProt P62318, whole entry: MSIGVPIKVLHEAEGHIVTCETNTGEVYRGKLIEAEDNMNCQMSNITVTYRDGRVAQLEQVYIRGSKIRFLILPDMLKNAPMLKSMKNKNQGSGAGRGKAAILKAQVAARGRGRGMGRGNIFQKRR
UniProt P50452: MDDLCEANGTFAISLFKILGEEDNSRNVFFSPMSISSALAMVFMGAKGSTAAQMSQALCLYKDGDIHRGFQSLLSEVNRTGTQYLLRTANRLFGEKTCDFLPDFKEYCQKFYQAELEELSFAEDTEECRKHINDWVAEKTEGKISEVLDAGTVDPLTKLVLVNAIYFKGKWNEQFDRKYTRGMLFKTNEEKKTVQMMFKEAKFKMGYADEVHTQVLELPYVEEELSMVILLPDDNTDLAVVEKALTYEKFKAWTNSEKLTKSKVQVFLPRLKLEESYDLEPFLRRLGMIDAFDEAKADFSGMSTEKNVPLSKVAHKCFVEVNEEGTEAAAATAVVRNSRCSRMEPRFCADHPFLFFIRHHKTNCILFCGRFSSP
UniProt P98179: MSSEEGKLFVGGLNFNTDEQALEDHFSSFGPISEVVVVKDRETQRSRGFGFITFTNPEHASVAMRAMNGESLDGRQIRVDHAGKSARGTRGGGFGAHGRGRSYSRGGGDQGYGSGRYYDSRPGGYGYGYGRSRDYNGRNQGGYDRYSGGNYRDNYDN
UniProt P56159: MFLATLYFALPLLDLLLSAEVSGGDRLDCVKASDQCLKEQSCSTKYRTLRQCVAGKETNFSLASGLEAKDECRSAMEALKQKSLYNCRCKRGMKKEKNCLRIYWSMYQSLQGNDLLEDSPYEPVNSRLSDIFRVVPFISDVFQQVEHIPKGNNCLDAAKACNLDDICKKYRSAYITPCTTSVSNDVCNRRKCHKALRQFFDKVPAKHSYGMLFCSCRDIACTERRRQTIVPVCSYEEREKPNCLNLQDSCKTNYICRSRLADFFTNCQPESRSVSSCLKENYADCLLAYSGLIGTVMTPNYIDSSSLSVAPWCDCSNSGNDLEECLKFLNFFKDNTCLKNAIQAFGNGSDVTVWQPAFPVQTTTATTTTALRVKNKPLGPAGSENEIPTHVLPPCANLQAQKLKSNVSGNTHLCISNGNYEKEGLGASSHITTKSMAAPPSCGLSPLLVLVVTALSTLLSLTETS
UniProt P53367: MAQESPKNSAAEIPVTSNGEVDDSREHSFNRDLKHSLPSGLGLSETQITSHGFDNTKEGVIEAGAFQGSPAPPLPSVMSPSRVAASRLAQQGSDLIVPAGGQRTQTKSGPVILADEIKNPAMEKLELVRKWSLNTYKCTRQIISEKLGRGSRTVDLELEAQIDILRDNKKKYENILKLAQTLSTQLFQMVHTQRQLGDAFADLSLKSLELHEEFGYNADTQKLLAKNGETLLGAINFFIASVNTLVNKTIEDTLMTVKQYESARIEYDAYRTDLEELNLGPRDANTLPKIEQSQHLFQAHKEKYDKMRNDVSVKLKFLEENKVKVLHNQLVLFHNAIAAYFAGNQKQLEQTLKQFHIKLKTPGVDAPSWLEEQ
UniProt P60520, whole entry: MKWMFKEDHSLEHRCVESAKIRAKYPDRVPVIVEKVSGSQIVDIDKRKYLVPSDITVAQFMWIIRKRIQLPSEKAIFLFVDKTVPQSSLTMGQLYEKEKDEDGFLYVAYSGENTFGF
UniProt P51692: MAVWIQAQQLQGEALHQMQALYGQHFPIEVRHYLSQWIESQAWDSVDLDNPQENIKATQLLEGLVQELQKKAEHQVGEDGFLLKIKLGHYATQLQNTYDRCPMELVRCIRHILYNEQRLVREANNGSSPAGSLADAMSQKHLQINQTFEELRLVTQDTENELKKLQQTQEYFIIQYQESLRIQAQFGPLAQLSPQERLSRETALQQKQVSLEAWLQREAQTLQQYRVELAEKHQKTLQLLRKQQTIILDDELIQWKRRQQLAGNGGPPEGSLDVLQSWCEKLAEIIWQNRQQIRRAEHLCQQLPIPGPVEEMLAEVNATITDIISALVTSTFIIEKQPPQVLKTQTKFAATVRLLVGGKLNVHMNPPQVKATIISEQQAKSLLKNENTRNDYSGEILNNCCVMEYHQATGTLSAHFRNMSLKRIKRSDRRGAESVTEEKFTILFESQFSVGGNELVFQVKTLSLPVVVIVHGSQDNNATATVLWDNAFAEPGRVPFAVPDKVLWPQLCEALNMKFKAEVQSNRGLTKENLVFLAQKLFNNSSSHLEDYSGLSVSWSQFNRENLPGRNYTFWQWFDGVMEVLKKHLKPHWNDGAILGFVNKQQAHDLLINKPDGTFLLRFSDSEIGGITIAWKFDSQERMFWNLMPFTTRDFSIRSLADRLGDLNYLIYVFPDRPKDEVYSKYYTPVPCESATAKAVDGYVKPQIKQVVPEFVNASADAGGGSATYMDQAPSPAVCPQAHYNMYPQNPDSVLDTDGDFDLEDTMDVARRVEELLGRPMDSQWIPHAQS
UniProt P52732: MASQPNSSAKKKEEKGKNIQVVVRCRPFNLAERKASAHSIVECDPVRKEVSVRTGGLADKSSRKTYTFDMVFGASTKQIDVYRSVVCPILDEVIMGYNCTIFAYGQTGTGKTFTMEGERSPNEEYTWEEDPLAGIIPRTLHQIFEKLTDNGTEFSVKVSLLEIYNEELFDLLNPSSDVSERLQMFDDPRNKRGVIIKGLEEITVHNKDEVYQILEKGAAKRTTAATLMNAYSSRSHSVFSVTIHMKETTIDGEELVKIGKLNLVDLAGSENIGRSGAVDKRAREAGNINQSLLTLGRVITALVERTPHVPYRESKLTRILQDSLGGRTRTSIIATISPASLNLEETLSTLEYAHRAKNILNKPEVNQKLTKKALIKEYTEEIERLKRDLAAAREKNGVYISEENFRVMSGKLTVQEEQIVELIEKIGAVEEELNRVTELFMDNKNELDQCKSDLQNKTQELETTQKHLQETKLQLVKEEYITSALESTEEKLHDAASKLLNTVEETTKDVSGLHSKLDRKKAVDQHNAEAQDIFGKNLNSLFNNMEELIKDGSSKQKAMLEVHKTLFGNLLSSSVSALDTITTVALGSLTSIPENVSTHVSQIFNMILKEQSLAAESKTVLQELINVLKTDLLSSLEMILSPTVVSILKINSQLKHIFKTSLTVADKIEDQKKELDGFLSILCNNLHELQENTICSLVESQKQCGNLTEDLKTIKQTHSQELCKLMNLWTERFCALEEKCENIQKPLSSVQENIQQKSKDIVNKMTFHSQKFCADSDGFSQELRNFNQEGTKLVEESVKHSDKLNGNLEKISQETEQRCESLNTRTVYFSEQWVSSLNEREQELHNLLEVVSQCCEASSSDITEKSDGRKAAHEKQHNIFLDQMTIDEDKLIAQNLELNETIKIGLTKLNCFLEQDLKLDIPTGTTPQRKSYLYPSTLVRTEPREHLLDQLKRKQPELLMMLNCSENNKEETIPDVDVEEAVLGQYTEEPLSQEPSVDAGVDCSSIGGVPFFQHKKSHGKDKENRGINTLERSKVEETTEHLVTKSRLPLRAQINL
UniProt P55039: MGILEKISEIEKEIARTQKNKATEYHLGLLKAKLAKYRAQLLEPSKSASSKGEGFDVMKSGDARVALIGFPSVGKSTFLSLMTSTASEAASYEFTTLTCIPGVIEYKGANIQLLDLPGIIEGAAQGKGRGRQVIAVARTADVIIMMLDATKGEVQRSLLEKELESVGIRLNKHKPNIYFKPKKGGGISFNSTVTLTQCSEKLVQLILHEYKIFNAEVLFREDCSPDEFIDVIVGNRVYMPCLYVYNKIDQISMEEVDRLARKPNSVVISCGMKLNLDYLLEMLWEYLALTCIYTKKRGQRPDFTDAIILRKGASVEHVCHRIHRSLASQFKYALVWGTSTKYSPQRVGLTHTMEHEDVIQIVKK
UniProt P61024, whole entry: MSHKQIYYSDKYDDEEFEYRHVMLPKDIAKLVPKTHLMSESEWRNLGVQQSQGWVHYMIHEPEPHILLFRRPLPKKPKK
UniProt P50750, whole entry: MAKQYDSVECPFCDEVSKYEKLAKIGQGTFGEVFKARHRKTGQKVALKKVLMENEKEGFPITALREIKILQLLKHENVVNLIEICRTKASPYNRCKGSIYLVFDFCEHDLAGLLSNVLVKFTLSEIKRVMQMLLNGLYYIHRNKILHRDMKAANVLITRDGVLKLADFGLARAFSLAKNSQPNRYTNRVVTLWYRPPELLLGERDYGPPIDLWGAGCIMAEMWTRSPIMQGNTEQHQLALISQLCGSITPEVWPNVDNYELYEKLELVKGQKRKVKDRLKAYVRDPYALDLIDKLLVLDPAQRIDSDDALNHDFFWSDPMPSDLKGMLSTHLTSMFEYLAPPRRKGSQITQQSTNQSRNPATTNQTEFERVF
UniProt P54687: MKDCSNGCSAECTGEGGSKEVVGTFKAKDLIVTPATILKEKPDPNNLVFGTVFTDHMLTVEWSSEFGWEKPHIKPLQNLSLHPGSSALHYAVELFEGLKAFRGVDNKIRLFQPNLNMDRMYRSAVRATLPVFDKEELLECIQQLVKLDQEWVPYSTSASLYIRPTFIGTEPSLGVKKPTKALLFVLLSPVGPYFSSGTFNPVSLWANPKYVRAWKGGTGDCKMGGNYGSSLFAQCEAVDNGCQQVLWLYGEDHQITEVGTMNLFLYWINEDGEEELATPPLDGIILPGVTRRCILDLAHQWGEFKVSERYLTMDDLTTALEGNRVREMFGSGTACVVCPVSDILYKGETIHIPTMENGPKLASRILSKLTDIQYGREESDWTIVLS
UniProt P78346: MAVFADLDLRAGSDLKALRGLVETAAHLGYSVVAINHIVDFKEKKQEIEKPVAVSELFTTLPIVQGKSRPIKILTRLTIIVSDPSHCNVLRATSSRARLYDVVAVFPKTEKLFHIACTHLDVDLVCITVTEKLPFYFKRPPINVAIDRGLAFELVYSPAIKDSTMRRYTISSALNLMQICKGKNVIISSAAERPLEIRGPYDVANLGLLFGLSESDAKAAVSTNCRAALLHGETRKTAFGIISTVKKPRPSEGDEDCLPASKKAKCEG

compound: Nc1nc2c(ncn2[C@@H]2O[C@H](COP(=O)(O)OP(=O)(O)OP(=O)(O)O)[C@@H](O)[C@H]2O)c(=O)[nH]1 [guanosine triphosphate]; test: NP40-soluble protein abundance relative to vehicle (solubility fold change) (ratio); higher = more soluble protein in presence of GTP; settings: concentration: 0.1mM
Procedure, shortened: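 Jurkat crude lysate prepared with a Dounce homogeniser was treated at eight concentrations spanning 0.1 to 10 mM, 10 min at room temperature then 3 min at 37 °C. Solubilisation with 0.8% NP40 and benzonase and ultracentrifugation preceded TMT labelling of the supernatant for LC-MS/MS. Fold change against the detergent-processed vehicle was determined per replicate from vsn-normalised intensities, across three independent experiments.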

UniProt P50995 and related entries was tested. Which NP40-soluble protein abundance did it give?
The NP40-soluble protein abundance was 0.929 ± 0.08.

UniProt P63000 and related entries was tested. Which NP40-soluble protein abundance did it give?
The NP40-soluble protein abundance was 0.955 ± 0.12.

Which NP40-soluble protein abundance does the source give for TPMT (UniProt P51580) here?
Its NP40-soluble protein abundance is 1.01 ± 0.042.

How did the NP40-soluble protein abundance turn out when UniProt Q00325 and related entries was run?
Its NP40-soluble protein abundance is 1.03 ± 0.034.

For UniProt P62805, which NP40-soluble protein abundance is on record?
Its NP40-soluble protein abundance is 0.891 ± 0.063.

For UniProt P56559 and related entries, which NP40-soluble protein abundance is on record?
The NP40-soluble protein abundance was 1.41 ± 0.089.

For UniProt P53990 and related entries, which NP40-soluble protein abundance is on record?
The NP40-soluble protein abundance was 0.936 ± 0.04.

Which NP40-soluble protein abundance does the source give for UniProt P62318 and related entries here?
The NP40-soluble protein abundance was 1.11 ± 0.16.

Which NP40-soluble protein abundance does the source give for “UniProt P78310-5|P78310 and related entries” here?
The NP40-soluble protein abundance was 0.974 ± 0.052.

For SERPINB8 (UniProt P50452), which NP40-soluble protein abundance is on record?
Its NP40-soluble protein abundance is 0.997 ± 0.033.

For RBM3 (UniProt P98179), which NP40-soluble protein abundance is on record?
Its NP40-soluble protein abundance is 0.988 ± 0.083.

same assay, conditions: concentration: 0.5mM

Which NP40-soluble protein abundance does the source give for UniProt P56159 and related entries here?
Its NP40-soluble protein abundance is 0.999 ± 0.065.

Which NP40-soluble protein abundance does the source give for MAT1A (UniProt Q00266) here?
Its NP40-soluble protein abundance is 1.09 ± 0.049.

UniProt P53621 and related entries was tested. Which NP40-soluble protein abundance did it give?
Its NP40-soluble protein abundance is 1.09 ± 0.094.

For RPL7A (UniProt P62424), which NP40-soluble protein abundance is on record?
Its NP40-soluble protein abundance is 0.939 ± 0.019.

Which NP40-soluble protein abundance does the source give for KPNA2 (UniProt P52292) here?
The NP40-soluble protein abundance was 0.961 ± 0.027.

With UniProt P53367 and related entries as the target, how does the NP40-soluble protein abundance read?
The NP40-soluble protein abundance was 0.987 ± 0.059.

With GTF2B (UniProt Q00403) as the target, how does the NP40-soluble protein abundance read?
Its NP40-soluble protein abundance is 1.02 ± 0.018.

With MVD (UniProt P53602) as the target, how does the NP40-soluble protein abundance read?
Its NP40-soluble protein abundance is 0.97 ± 0.037.

For UniProt P60520, which NP40-soluble protein abundance is on record?
Its NP40-soluble protein abundance is 1.01 ± 0.02.

Which NP40-soluble protein abundance does the source give for STAT5B (UniProt P51692) here?
Its NP40-soluble protein abundance is 0.97 ± 0.024.

KIF11 (UniProt P52732) was tested. Which NP40-soluble protein abundance did it give?
The NP40-soluble protein abundance was 0.998 ± 0.015.

How did the NP40-soluble protein abundance turn out when PSMD7 (UniProt P51665) was run?
The NP40-soluble protein abundance was 1.02 ± 0.041.

Which NP40-soluble protein abundance does the source give for RASSF2 (UniProt P50749) here?
The NP40-soluble protein abundance was 1.03 ± 0.096.

CAPZA1 (UniProt P52907) was tested. Which NP40-soluble protein abundance did it give?
Its NP40-soluble protein abundance is 0.955 ± 0.091.

With UniProt P52306 and related entries as the target, how does the NP40-soluble protein abundance read?
Its NP40-soluble protein abundance is 0.983 ± 0.02.

UniProt P61978-2|P61978-3|Q5T6W2 was tested. Which NP40-soluble protein abundance did it give?
The NP40-soluble protein abundance was 0.94 ± 0.039.

With LMO4 (UniProt P61968) as the target, how does the NP40-soluble protein abundance read?
The NP40-soluble protein abundance was 1.05 ± 0.14.

UniProt P55039 and related entries was tested. Which NP40-soluble protein abundance did it give?
Its NP40-soluble protein abundance is 1.05 ± 0.074.

How did the NP40-soluble protein abundance turn out when UniProt P60891 was run?
The NP40-soluble protein abundance was 1.15 ± 0.18.

UniProt P63279 and related entries was tested. Which NP40-soluble protein abundance did it give?
The NP40-soluble protein abundance was 0.907 ± 0.022.

UniProt P61024 and related entries was tested. Which NP40-soluble protein abundance did it give?
Its NP40-soluble protein abundance is 0.939 ± 0.055.

Which NP40-soluble protein abundance does the source give for UniProt P50750 and related entries here?
Its NP40-soluble protein abundance is 1.11 ± 0.069.

UniProt P54687 and related entries was tested. Which NP40-soluble protein abundance did it give?
Its NP40-soluble protein abundance is 0.994 ± 0.058.

With UniProt P56270-2 as the target, how does the NP40-soluble protein abundance read?
Its NP40-soluble protein abundance is 0.939 ± 0.04.

How did the NP40-soluble protein abundance turn out when UniProt P63244 and related entries was run?
The NP40-soluble protein abundance was 1.04 ± 0.13.

Which NP40-soluble protein abundance does the source give for RAB8A (UniProt P61006) here?
The NP40-soluble protein abundance was 0.95 ± 0.039.

UniProt P78346 and related entries was tested. Which NP40-soluble protein abundance did it give?
The NP40-soluble protein abundance was 1.06 ± 0.17.

For UniProt P50995 and related entries, which NP40-soluble protein abundance is on record?
Its NP40-soluble protein abundance is 0.876 ± 0.092.

UniProt P63000 and related entries was tested. Which NP40-soluble protein abundance did it give?
Its NP40-soluble protein abundance is 0.991 ± 0.15.

Which NP40-soluble protein abundance does the source give for TPMT (UniProt P51580) here?
Its NP40-soluble protein abundance is 1 ± 0.057.

Which NP40-soluble protein abundance does the source give for UniProt Q00325 and related entries here?
Its NP40-soluble protein abundance is 1.05 ± 0.11.

For UniProt P62805, which NP40-soluble protein abundance is on record?
Its NP40-soluble protein abundance is 0.855 ± 0.058.

With UniProt P56559 and related entries as the target, how does the NP40-soluble protein abundance read?
Its NP40-soluble protein abundance is 1.56 ± 0.19.

Which NP40-soluble protein abundance does the source give for UniProt P53990 and related entries here?
The NP40-soluble protein abundance was 0.907 ± 0.045.

How did the NP40-soluble protein abundance turn out when UniProt P62318 and related entries was run?
The NP40-soluble protein abundance was 1.04 ± 0.016.

“UniProt P78310-5|P78310 and related entries” was tested. Which NP40-soluble protein abundance did it give?
The NP40-soluble protein abundance was 0.983 ± 0.14.

For SERPINB8 (UniProt P50452), which NP40-soluble protein abundance is on record?
The NP40-soluble protein abundance was 0.991 ± 0.029.

How did the NP40-soluble protein abundance turn out when RBM3 (UniProt P98179) was run?
Its NP40-soluble protein abundance is 0.98 ± 0.062.

same assay, conditions: concentration: 1mM

How did the NP40-soluble protein abundance turn out when UniProt P56159 and related entries was run?
Its NP40-soluble protein abundance is 0.966 ± 0.071.

Which NP40-soluble protein abundance does the source give for MAT1A (UniProt Q00266) here?
Its NP40-soluble protein abundance is 1 ± 0.13.

How did the NP40-soluble protein abundance turn out when UniProt P53621 and related entries was run?
Its NP40-soluble protein abundance is 0.974 ± 0.069.

With RPL7A (UniProt P62424) as the target, how does the NP40-soluble protein abundance read?
The NP40-soluble protein abundance was 0.975 ± 0.085.

KPNA2 (UniProt P52292) was tested. Which NP40-soluble protein abundance did it give?
The NP40-soluble protein abundance was 1.02 ± 0.013.

Which NP40-soluble protein abundance does the source give for UniProt P53367 and related entries here?
The NP40-soluble protein abundance was 1.01 ± 0.071.

With GTF2B (UniProt Q00403) as the target, how does the NP40-soluble protein abundance read?
The NP40-soluble protein abundance was 0.9979 ± 0.0021.

For MVD (UniProt P53602), which NP40-soluble protein abundance is on record?
The NP40-soluble protein abundance was 0.944 ± 0.068.

For UniProt P60520, which NP40-soluble protein abundance is on record?
Its NP40-soluble protein abundance is 0.906 ± 0.023.

For STAT5B (UniProt P51692), which NP40-soluble protein abundance is on record?
The NP40-soluble protein abundance was 0.953 ± 0.029.

With KIF11 (UniProt P52732) as the target, how does the NP40-soluble protein abundance read?
The NP40-soluble protein abundance was 0.972 ± 0.012.

With PSMD7 (UniProt P51665) as the target, how does the NP40-soluble protein abundance read?
Its NP40-soluble protein abundance is 0.981 ± 0.089.

RASSF2 (UniProt P50749) was tested. Which NP40-soluble protein abundance did it give?
Its NP40-soluble protein abundance is 1.02 ± 0.079.

Which NP40-soluble protein abundance does the source give for CAPZA1 (UniProt P52907) here?
Its NP40-soluble protein abundance is 0.912 ± 0.054.

UniProt P52306 and related entries was tested. Which NP40-soluble protein abundance did it give?
The NP40-soluble protein abundance was 0.916 ± 0.014.

For UniProt P61978-2|P61978-3|Q5T6W2, which NP40-soluble protein abundance is on record?
The NP40-soluble protein abundance was 0.944 ± 0.041.

With LMO4 (UniProt P61968) as the target, how does the NP40-soluble protein abundance read?
The NP40-soluble protein abundance was 1.02 ± 0.089.

Which NP40-soluble protein abundance does the source give for UniProt P55039 and related entries here?
Its NP40-soluble protein abundance is 0.938 ± 0.025.

With UniProt P60891 as the target, how does the NP40-soluble protein abundance read?
Its NP40-soluble protein abundance is 1.18 ± 0.22.

Which NP40-soluble protein abundance does the source give for UniProt P63279 and related entries here?
The NP40-soluble protein abundance was 0.972 ± 0.094.

For UniProt P61024 and related entries, which NP40-soluble protein abundance is on record?
Its NP40-soluble protein abundance is 1.04 ± 0.042.

UniProt P50750 and related entries was tested. Which NP40-soluble protein abundance did it give?
Its NP40-soluble protein abundance is 1.07 ± 0.039.

UniProt P54687 and related entries was tested. Which NP40-soluble protein abundance did it give?
Its NP40-soluble protein abundance is 0.928 ± 0.019.

UniProt P56270-2 was tested. Which NP40-soluble protein abundance did it give?
Its NP40-soluble protein abundance is 0.954 ± 0.033.

How did the NP40-soluble protein abundance turn out when UniProt P63244 and related entries was run?
Its NP40-soluble protein abundance is 0.936 ± 0.15.

For RAB8A (UniProt P61006), which NP40-soluble protein abundance is on record?
Its NP40-soluble protein abundance is 0.903 ± 0.041.

With UniProt P78346 and related entries as the target, how does the NP40-soluble protein abundance read?
The NP40-soluble protein abundance was 1.09 ± 0.13.

For UniProt P50995 and related entries, which NP40-soluble protein abundance is on record?
Its NP40-soluble protein abundance is 0.957 ± 0.091.

How did the NP40-soluble protein abundance turn out when UniProt P63000 and related entries was run?
The NP40-soluble protein abundance was 0.962 ± 0.078.

Which NP40-soluble protein abundance does the source give for TPMT (UniProt P51580) here?
The NP40-soluble protein abundance was 0.93 ± 0.058.

With UniProt Q00325 and related entries as the target, how does the NP40-soluble protein abundance read?
The NP40-soluble protein abundance was 0.886 ± 0.03.

How did the NP40-soluble protein abundance turn out when UniProt P62805 was run?
The NP40-soluble protein abundance was 0.972 ± 0.027.

With UniProt P56559 and related entries as the target, how does the NP40-soluble protein abundance read?
Its NP40-soluble protein abundance is 1.56 ± 0.21.

Which NP40-soluble protein abundance does the source give for UniProt P53990 and related entries here?
Its NP40-soluble protein abundance is 0.963 ± 0.075.

UniProt P62318 and related entries was tested. Which NP40-soluble protein abundance did it give?
The NP40-soluble protein abundance was 1.24 ± 0.17.

For “UniProt P78310-5|P78310 and related entries”, which NP40-soluble protein abundance is on record?
Its NP40-soluble protein abundance is 1.02 ± 0.17.

Which NP40-soluble protein abundance does the source give for SERPINB8 (UniProt P50452) here?
The NP40-soluble protein abundance was 0.93 ± 0.025.

Which NP40-soluble protein abundance does the source give for RBM3 (UniProt P98179) here?
The NP40-soluble protein abundance was 1.03 ± 0.045.
